Assay results taken from article PMC7026659.
Construct, isoform or probe ends are uncertain for at least one entry. For some assays here: Where cells or extracts were used, other partners may take part. For some assays here: Weaker means in comparison with the reference protein, sequence or condition of that experiment. For some assays here: At least one verdict rests on a figure or table, not on a statement of the authors.

The chains behind the UniProt entries cited, without tags or fusion partners. Where a name states a change or a piece, a line headed by the entry shows the natural chain unless it says otherwise. Residues count along the entry.
UniProt P43351: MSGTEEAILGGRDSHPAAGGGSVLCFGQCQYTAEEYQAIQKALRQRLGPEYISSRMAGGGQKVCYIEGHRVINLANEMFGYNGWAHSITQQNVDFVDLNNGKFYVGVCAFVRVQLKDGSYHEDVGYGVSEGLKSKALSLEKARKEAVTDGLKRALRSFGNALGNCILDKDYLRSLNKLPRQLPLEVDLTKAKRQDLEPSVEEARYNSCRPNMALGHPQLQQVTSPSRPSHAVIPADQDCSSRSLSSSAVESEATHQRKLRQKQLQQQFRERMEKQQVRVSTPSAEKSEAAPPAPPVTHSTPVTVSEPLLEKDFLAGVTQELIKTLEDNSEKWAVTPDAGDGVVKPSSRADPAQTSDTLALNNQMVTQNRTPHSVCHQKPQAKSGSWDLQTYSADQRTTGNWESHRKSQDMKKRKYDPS
UniProt Q03468, 444-509: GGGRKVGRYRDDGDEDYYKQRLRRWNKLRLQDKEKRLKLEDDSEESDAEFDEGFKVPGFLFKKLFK
UniProt Q03468, 307-444: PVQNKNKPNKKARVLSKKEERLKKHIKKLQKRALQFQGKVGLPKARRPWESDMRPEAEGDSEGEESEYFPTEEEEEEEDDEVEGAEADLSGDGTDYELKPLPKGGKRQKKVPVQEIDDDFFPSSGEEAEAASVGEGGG
UniProt Q03468, 307-509: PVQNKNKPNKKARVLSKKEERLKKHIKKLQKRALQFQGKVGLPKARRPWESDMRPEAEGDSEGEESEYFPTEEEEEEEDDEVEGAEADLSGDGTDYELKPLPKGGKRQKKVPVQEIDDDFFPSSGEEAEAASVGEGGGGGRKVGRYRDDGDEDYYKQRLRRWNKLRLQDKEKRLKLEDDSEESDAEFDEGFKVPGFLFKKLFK

Legend:
[1] = molecular target: RAD52 WT (Homo sapiens) (UniProt P43351); experiment: EMSA; conditions: 1 mM Mg2+; EMSA (described for RAD52): 25 mM Tris-HCl pH 7.5, 1 mM MgCl2, 1 mM DTT, 50 ug/ml BSA, 50 mM NaCl, 15 min, 37 C, 6% PAGE-TBE at 4 C; recombinant protein; protein details: C-terminal 6xHis; label: 5'-maleimide-IR800 on oligo 1 (DNA); DNA:RNA hybrid
[2] = molecular target: GST-CSB-ADC WT (Homo sapiens) (UniProt Q03468); experiment: EMSA; conditions: EMSA (described for RAD52): 25 mM Tris-HCl pH 7.5, 1 mM MgCl2, 1 mM DTT, 50 ug/ml BSA, 50 mM NaCl, 15 min, 37 C, 6% PAGE-TBE at 4 C; recombinant protein; residues 444-509; protein details: GST; label: 5'-maleimide-IR800 on oligo 1 (DNA); DNA:RNA hybrid
[3] = molecular target: GFP-CSB-ADN (AD-N) (UniProt Q03468); experiment: pull-down; conditions: AD-C bound much more efficiently; pull-down: kit protein-RNA binding buffer, 15% glycerol, 30-60 min, 4 C; protein in a lysate after overexpression; residues 307-444; protein details: GFP (pEGFP-C1); DNA:RNA hybrid
[4] = molecular target: GFP-CSB-ADC (AD-C) (UniProt Q03468); experiment: pull-down; conditions: pull-down: kit protein-RNA binding buffer, 15% glycerol, 30-60 min, 4 C; protein in a lysate after overexpression; residues 444-509; protein details: GFP (pEGFP-C1); DNA:RNA hybrid
[5] = molecular target: GFP-CSB-AD (acidic domain) (UniProt Q03468); experiment: pull-down; conditions: lower than AD-C; pull-down: kit protein-RNA binding buffer, 15% glycerol, 30-60 min, 4 C; protein in a lysate after overexpression; residues 307-509; protein details: GFP (pEGFP-C1); DNA:RNA hybrid

Sequence | binding result [1] | binding result [2] | binding result [3] | binding result [4] | binding result [5]
ATCATCACCATAACGTCGATGTATCAACTTCGATTAGTCACACCAATTAA / UUAAUUGGUGUGACUAAUCGAAGUUGAUACAUCGACGUUAUGGUGAUGAU [RNA-DNA hybrid (oligo 1/oligo 2)] | binds | binds | – | – | –
ATCATCACCATAACGTCGATGTATCAACTTCGATTAGTCACACCAATTAA / UUAAUUGGUGUGACUAAUCGAAGUUGAUACAUCGACGUUAUGGUGAUGAU [biotin-labeled DNA:RNA hybrid (pull-down)] | – | – | binds more weakly | binds | binds
